PubChem BioAssay AID1259308 | NCATS, 2017

Screen: 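Candidate targets for better recombinant protein yield in mammalian cells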 (primary screen)
Cells: human HEK293 embryonic kidney cells stably expressing firefly luciferase (HEK-CMV-Luc2-Hygro)
Reagents: single siRNA against human genes, 0.8 pmol siRNA per well
Duration: 72 h
Detection: 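Luciferase light (ONE-Glo) measured on one replicate plate set and viability (CellTiter-Glo) on the other, scaled to a negative control siRNA, with robust z-scores and luciferase per cell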
Reading the numbers: total luciferase, z-score and total luciferase, % of control: higher = more reporter protein produced; luciferase per cell, z-score: higher = more reporter output per viable cell; viable cells, % of control: higher = more viable cells
Hit rule: 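Active when the median/MAD z-score for overall luciferase is greater than 3; a gene was taken forward for validation with new siRNAs if at least two of its three siRNAs passed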
Meaning of the calls: active = raised luciferase; inactive = no rise
Here is an unselected part of about 59,000 deposited reagents. Over the whole deposit, about 1,510 (2.6%) got an active call. 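Calls use total luciferase alone and ignore viability, so some active siRNAs may act by altering cell number.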 A number with no mark means an inactive call. Reagents against one gene are numbered here.

Gene | reagent | total luciferase, z-score | total luciferase, % of control | luciferase per cell, z-score | viable cells, % of control
ZNF182 | 1 | 0.341 | 88.7 | 0.0423 | 98
ZNF182 | 2 | 0.148 | 84.8 | 0.932 | 74.1
ZNF182 | 3 | -0.502 | 71.9 | -0.714 | 97
EMP1 | 1 | -1.03 | 61.4 | -0.743 | 83.5
EMP1 | 2 | 0.603 | 93.9 | 0.417 | 94
EMP1 | 3 | -0.56 | 70.8 | -0.301 | 85.6
TIPRL | 1 | 1.03 | 102 | 0.881 | 90.7
TIPRL | 2 | -0.00894 | 81.7 | -0.0283 | 92
TIPRL | 3 | 0.241 | 86.7 | 0.494 | 85
MAMSTR | 1 | -0.894 | 64.1 | -0.771 | 87.8
MAMSTR | 2 | 3.53 (active) | 152 | 2.45 | 89.1
MAMSTR | 3 | -0.959 | 62.8 | -0.443 | 78.9
ZNF174 | 1 | 1.14 | 105 | 0.848 | 93.5
ZNF174 | 2 | 0.229 | 86.4 | -0.314 | 105
ZNF174 | 3 | -0.17 | 78.5 | -0.853 | 110
NMD3P1 | 1 | 1.11 | 104 | 0.497 | 102
NMD3P1 | 2 | 0.0897 | 83.7 | -0.75 | 114
NMD3P1 | 3 | 0.573 | 93.3 | -0.112 | 107
COL13A1 | 1 | 0.299 | 87.8 | 0.838 | 78.7
COL13A1 | 2 | -1.19 | 58.1 | 0.19 | 61.8
COL13A1 | 3 | -1.8 | 46.1 | -1.43 | 75.1
C1orf35 | 1 | -0.317 | 75.6 | -1.44 | 123
C1orf35 | 2 | -0.558 | 70.8 | -1.3 | 111
C1orf35 | 3 | 0.777 | 97.3 | -0.379 | 120
ORMDL3 | 1 | 2 | 122 | 3.7 | 51.3
ORMDL3 | 2 | -1.24 | 57.3 | -0.392 | 70.9
ORMDL3 | 3 | 0.86 | 99 | 1.25 | 79.5
CCL16 | 1 | 0.88 | 99.4 | 0.332 | 102
CCL16 | 2 | 0.289 | 87.6 | -0.769 | 120
CCL16 | 3 | -1.11 | 59.8 | -1.47 | 98.4
CYP1B1-AS1 | 1 | 1.57 | 113 | 0.866 | 101
CYP1B1-AS1 | 2 | -0.0471 | 80.9 | -0.128 | 93.5
CYP1B1-AS1 | 3 | 1.44 | 111 | 1.17 | 90.8
CRYBB3 | 1 | 0.392 | 89.7 | 0.135 | 96.7
CRYBB3 | 2 | -0.728 | 67.4 | 1.29 | 53.6
CRYBB3 | 3 | -0.241 | 77.1 | -0.401 | 95.7
ELOVL4 | 1 | -1.95 | 43 | -2.63 | 96.1
ELOVL4 | 2 | -0.577 | 70.4 | -1.41 | 114
ELOVL4 | 3 | 3.68 (active) | 155 | 2.23 | 96.3
GSTO2 | 1 | 0.844 | 98.7 | 0.491 | 96.9
GSTO2 | 2 | -0.188 | 78.1 | -0.422 | 97.6
GSTO2 | 3 | -0.625 | 69.5 | 0.373 | 70.4
TMEM179B | 1 | -0.843 | 65.1 | 0.341 | 66.5
TMEM179B | 2 | 0.819 | 98.2 | 1.66 | 70.9
TMEM179B | 3 | -0.485 | 72.2 | -0.0267 | 81.3
OXSR1 | 1 | -1.78 | 46.5 | -1.01 | 67.7
OXSR1 | 2 | -0.357 | 74.8 | -0.464 | 94.4
OXSR1 | 3 | -0.486 | 72.2 | -0.742 | 98.1
RNF19A | 1 | -1.03 | 61.3 | -1.17 | 93.2
RNF19A | 2 | 0.286 | 87.6 | -0.183 | 103
RNF19A | 3 | 0.104 | 83.9 | -0.407 | 104
AARD | 1 | -0.815 | 65.7 | -0.697 | 88.2
AARD | 2 | 0.205 | 86 | -0.52 | 110
AARD | 3 | -2.04 | 41.4 | -1.93 | 76.8
KCNN4 | 1 | 0.817 | 98.1 | 0.956 | 85.3
KCNN4 | 2 | 0.291 | 87.7 | 0.747 | 80.5
KCNN4 | 3 | 1.73 | 116 | 1.06 | 98.2

Called active (from the list above):
Gene | reagent | total luciferase, z-score | total luciferase, % of control | luciferase per cell, z-score | viable cells, % of control
MAMSTR | 2 | 3.53 (active) | 152 | 2.45 | 89.1
ELOVL4 | 3 | 3.68 (active) | 155 | 2.23 | 96.3
